Experimental data as given in paper PMC7015241.

B1: Myocardin-related transcription factor A (MRTF-A), yeast two-hybrid fusion (protein, UniProt Q969V6 1-931)
chain: MPPLKSPAAFHEQRRSLERARTEDYLKRKIRSRPERSELVRMHILEETSAEPSLQAKQLKLKRARLADDLNEKIAQRPGPMELVEKNILPVESSLKEAIIVGQVNYPKVADSSSFDEDSSDALSPEQPASHESQGSVPSPLEARVSEPLLSATSASPTQVVSQLPMGRDSREMLFLAEQPPLPPPPLLPPSLTNGTTIPTAKSTPTLIKQSQPKSASEKSQRSKKAKELKPKVKKLKYHQYIPPDQKQDRGAPPMDSSYAKILQQQQLFLQLQILNQQQQQHHNYQAILPAPPKSAGEALGSSGTPPVRSLSTTNSSSSSGAPGPCGLARQNSTSLTGKPGALPANLDDMKVAELKQELKLRSLPVSGTKTELIERLRAYQDQISPVPGAPKAPAATSILHKAGEVVVAFPAARLSTGPALVAAGLAPAEVVVATVASSGVVKFGSTGSTPPVSPTPSERSLLSTGDENSTPGDTFGEMVTSPLTQLTLQASPLQILVKEEGPRAGSCCLSPGGRAELEGRDKDQMLQEKDKQIEALTRMLRQKQQLVERLKLQLEQEKRAQQPAPAPAPLGTPVKQENSFSSCQLSQQPLGPAHPFNPSLAAPATNHIDPCAVAPGPPSVVVKQEALQPEPEPVPAPQLLLGPQGPSLIKGVAPPTLITDSTGTHLVLTVTNKNADSPGLSSGSPQQPSSQPGSPAPAPSAQMDLEHPLQPLFGTPTSLLKKEPPGYEEAMSQQPKQQENGSSSQQMDDLFDILIQSGEISADFKEPPSLPGKEKPSPKTVCGSPLAAQPSPSAELPQAAPPPPGSPSLPGRLEDFLESSTGLPLLTSGHDGPEPLSLIDDLHSQMLSSTAILDHPPSPMDTSELHFVPEPSSTMGLDLADGHLDSMDWLELSSGGPVLSLAPLSTTAPSLFSTDFLDGHDLQLHWDSCL
B2: Myocardin-related transcription factor B (MRTF-B), yeast two-hybrid fusion (protein, UniProt Q9ULH7 1-1088)
chain: MIDSSKKQQQGFPEILTAGDFEPLKEKECLEGSNQKSLKEVLQLRLQQRRTREQLVDQGIMPPLKSPAAFHEQIKSLERARTENFLKHKIRSRPDRSELVRMHILEETFAEPSLQATQMKLKRARLADDLNEKIAQRPGPMELVEKNILPVDSSVKEAIIGVGKEDYPHTQGDFSFDEDSSDALSPDQPASQESQGSAASPSEPKVSESPSPVTTNTPAQFASVSPTVPEFLKTPPTADQPPPRPAAPVLPTNTVSSAKPGPALVKQSHPKNPNDKHRSKKCKDPKPRVKKLKYHQYIPPDQKGEKNEPQMDSNYARLLQQQQLFLQLQILSQQKQHYNYQTILPAPFKPLNDKNSNSGNSALNNATPNTPRQNTSTPVRKPGPLPSSLDDLKVSELKTELKLRGLPVSGTKPDLIERLKPYQEVNSSGLAAGGIVAVSSSAIVTSNPEVTVALPVTTLHNTVTSSVSTLKAELPPTGTSNATRVENVHSPLPISPSPSEQSSLSTDDTNMADTFTEIMTMMSPSQFLSSSPLRMTNNEDSLSPTSSTLSNLELDAAEKDRKLQEKEKQIEELKRKLEQEQKLVEVLKMQLEVEKRGQQQRPLEAQPSAPGHSVKSDQKHGSLGSSIKDEASLPDCSSSRQPIPVASHAVGQPVSTGGQTLVAKKAVVIKQEVPVGQAEQQSVVSQFYVSSQGQPPPAVVAQPQALLTTQTAQLLLPVSIQGSSVTSVQLPVGSLKLQTSPQAGMQTQPQIATAAQIPTAALASGLAPTVPQTQDTFPQHVLSQPQQVRKVFTNSASSNTVLPYQRHPAPAVQQPFINKASNSVLQSRNAPLPSLQNGPNTPNKPSSPPPPQQFVVQHSLFGSPVAKTKDPPRYEEAIKQTRSTQAPLPEISNAHSQQMDDLFDILIKSGEISLPIKEEPSPISKMRPVTASITTMPVNTVVSRPPPQVQMAPPVSLEPMGSLSASLENQLEAFLDGTLPSANEIPPLQSSSEDREPFSLIEDLQNDLLSHSGMLDHSHSPMETSETQFAAGTPCLSLDLSDSNLDNMEWLDITMPNSSSGLTPLSTTAPSMFSADFLDPQDLPLPWD

How the values were obtained:
[1] = molecular target: Myopalladin (MYPN) C-terminal region (not stated (human or mouse cDNA cloned)); experiment: two-hybrid; pGBKT7 bait and pGADT7 prey cotransformed into Y2H Gold yeast; growth on SD medium lacking Trp, Leu, His and Ade with 120 ng/mL aureobasidin A, 30°C, 3–4 days
[2] = molecular target: Myopalladin (MYPN) Ig3 domain, yeast two-hybrid fusion (not stated (human or mouse cDNA cloned)); experiment: as above

Binder | binding [1] | binding [2]
B1 | binds | binds
B2 | binds | –

Results are given in words; binding and its absence hold for the method and conditions named. Binding can be weak; no strength is given. Tags and fused reporters may be left off the sequences shown.
